Results are given in words; binding and its absence hold for the method and conditions named. Binding seen in cells or lysates may run through a third protein. Here binding means that the protein was enriched with, or labelled near, the bait; the list need not be complete. Where a sequence is shown, tags or fusion partners need not be part of it.

By UniProt entry, the sequences of proteins in these tests, tags left out.
UniProt Q14469: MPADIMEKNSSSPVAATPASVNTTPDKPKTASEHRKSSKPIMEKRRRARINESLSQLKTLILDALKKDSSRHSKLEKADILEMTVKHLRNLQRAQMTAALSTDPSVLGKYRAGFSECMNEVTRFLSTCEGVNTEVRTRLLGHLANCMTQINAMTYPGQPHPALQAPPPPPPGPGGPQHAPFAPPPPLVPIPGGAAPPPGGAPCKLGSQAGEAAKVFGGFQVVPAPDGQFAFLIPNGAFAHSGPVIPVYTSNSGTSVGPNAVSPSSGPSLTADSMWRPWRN
UniProt O75592: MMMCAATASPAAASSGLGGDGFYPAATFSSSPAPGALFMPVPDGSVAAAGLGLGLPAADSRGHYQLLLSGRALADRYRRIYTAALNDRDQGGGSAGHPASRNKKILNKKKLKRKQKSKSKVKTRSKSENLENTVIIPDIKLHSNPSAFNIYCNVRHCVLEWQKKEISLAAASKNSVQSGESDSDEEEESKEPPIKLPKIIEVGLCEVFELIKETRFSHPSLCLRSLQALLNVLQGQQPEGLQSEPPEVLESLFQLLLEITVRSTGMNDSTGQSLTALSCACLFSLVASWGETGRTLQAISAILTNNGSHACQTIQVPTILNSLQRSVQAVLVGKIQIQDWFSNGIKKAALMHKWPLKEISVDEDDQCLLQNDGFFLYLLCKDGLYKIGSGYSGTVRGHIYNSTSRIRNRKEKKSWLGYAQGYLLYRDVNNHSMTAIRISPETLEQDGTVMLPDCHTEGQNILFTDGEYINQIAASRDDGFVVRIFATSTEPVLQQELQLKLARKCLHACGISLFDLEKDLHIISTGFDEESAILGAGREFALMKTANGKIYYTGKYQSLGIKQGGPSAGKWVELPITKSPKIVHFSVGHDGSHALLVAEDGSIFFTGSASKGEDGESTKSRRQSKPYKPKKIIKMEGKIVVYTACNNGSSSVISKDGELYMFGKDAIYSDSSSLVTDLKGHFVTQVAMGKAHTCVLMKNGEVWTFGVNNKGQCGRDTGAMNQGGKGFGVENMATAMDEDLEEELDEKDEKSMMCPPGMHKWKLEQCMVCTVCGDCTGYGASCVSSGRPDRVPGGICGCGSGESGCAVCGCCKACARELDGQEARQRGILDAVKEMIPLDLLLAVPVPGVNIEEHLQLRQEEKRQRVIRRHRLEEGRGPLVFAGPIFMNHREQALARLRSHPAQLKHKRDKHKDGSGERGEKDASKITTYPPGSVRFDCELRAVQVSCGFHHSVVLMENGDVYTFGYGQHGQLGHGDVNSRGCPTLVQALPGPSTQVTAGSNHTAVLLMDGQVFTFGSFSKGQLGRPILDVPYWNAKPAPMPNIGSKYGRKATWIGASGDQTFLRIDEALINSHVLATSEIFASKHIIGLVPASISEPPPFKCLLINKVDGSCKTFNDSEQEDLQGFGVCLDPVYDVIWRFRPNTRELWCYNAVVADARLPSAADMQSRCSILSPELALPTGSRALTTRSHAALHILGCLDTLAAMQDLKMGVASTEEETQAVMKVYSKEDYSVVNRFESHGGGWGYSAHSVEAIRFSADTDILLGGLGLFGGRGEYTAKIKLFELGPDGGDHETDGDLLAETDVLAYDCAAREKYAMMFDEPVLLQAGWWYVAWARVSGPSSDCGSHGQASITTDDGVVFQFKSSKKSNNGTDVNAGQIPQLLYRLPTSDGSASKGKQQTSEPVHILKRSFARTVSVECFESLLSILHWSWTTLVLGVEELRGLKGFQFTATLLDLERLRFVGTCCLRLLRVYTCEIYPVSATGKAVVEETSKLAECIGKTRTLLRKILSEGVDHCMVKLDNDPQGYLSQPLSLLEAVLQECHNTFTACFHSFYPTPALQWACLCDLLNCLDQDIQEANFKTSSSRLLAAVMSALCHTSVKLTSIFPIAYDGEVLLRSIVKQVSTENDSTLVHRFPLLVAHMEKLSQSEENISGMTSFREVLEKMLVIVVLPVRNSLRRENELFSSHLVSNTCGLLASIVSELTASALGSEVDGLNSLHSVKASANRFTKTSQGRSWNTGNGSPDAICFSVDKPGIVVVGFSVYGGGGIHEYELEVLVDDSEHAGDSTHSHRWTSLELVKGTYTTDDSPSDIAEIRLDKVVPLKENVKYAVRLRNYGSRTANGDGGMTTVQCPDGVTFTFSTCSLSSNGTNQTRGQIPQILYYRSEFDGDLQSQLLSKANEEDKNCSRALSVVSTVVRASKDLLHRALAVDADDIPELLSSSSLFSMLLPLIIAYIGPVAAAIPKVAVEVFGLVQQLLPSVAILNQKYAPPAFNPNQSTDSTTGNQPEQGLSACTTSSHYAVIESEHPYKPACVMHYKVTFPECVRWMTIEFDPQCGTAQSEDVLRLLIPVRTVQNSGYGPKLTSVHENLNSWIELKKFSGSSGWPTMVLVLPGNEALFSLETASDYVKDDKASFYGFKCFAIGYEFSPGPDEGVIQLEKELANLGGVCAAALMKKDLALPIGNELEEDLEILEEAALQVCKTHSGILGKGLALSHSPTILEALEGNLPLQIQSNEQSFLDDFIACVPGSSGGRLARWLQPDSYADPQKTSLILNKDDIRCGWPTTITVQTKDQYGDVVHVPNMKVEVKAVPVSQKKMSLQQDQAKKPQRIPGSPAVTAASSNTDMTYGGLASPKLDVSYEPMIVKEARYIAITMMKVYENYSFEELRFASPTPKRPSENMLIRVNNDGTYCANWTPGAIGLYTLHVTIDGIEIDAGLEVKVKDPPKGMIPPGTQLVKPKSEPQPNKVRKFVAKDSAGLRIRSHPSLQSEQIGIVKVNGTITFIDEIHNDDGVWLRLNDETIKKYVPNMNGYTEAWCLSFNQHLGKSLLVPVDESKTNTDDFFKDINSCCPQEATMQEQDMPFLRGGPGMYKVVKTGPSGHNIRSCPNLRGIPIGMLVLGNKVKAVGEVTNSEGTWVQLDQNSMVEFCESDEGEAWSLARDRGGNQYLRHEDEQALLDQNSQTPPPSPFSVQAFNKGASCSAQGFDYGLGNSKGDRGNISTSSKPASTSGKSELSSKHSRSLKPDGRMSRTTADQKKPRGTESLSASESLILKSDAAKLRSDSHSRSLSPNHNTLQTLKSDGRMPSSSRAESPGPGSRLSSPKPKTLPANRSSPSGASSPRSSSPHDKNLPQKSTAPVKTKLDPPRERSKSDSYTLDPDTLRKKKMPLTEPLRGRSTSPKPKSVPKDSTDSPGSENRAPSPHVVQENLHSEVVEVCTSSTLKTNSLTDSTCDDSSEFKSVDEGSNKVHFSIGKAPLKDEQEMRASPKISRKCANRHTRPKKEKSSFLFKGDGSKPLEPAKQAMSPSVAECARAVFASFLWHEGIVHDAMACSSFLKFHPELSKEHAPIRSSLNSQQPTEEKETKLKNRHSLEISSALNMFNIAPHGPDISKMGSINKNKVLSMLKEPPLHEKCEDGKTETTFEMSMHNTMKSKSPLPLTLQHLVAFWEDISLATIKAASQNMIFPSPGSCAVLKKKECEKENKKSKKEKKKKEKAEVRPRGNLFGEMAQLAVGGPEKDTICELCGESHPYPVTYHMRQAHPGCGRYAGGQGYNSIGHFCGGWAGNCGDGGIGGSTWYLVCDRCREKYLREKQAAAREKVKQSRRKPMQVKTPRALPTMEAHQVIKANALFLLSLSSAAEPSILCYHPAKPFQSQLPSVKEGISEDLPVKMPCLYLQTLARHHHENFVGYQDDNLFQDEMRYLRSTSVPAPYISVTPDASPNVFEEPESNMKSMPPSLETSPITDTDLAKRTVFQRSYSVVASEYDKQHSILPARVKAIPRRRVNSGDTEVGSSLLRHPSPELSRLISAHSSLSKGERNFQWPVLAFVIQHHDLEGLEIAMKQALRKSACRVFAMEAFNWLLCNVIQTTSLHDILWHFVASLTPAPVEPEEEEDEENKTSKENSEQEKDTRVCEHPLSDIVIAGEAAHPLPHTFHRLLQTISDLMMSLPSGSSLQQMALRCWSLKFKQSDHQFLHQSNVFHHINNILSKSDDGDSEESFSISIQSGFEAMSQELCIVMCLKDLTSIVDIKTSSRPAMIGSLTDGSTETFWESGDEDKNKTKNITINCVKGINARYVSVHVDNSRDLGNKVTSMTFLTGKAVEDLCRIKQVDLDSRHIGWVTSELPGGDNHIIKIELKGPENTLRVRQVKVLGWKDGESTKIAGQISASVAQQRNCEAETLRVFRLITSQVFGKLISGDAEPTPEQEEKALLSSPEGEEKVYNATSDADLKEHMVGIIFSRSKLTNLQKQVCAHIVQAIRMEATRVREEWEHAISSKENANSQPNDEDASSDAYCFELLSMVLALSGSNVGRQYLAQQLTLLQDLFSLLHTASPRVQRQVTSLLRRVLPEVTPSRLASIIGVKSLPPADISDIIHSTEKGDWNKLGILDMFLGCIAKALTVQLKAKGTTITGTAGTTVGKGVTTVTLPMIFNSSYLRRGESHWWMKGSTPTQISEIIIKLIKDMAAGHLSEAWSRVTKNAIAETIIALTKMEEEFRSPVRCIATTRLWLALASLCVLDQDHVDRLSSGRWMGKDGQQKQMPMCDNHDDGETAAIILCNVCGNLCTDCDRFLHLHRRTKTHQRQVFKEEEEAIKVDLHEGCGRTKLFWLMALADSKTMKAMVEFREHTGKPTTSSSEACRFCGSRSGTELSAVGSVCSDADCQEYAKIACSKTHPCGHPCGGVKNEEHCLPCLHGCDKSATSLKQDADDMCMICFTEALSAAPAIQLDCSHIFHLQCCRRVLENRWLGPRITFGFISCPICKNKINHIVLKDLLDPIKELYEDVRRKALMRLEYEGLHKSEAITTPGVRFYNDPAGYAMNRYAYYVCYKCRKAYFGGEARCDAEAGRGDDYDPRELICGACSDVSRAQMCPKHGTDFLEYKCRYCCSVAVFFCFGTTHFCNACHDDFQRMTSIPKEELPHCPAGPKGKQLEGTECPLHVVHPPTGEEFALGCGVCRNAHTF

B1: FBXO45 (F-box protein 45), endogenous (protein, UniProt P0C2W1 1-286)
chain: MAAPAPGAGAASGGAGCSGGGAGAGAGSGSGAAGAGGRLPSRVLELVFSYLELSELRSCALVCKHWYRCLHGDENSEVWRSLCARSLAEEALRTDILCNLPSYKAKIRAFQHAFSTNDCSRNVYIKKNGFTLHRNPIAQSTDGARTKIGFSEGRHAWEVWWEGPLGTVAVIGIATKRAPMQCQGYVALLGSDDQSWGWNLVDNNLLHNGEVNGSFPQCNNAPKYQIGERIRVILDMEDKTLAFERGYEFLGVAFRGLPKVCLYPAVSAVYGNTEVTLVYLGKPLDG

In the test the target is T1, Flag-Strep (FS)-Hey1 (UniProt Q9WV93).
T1 sequence: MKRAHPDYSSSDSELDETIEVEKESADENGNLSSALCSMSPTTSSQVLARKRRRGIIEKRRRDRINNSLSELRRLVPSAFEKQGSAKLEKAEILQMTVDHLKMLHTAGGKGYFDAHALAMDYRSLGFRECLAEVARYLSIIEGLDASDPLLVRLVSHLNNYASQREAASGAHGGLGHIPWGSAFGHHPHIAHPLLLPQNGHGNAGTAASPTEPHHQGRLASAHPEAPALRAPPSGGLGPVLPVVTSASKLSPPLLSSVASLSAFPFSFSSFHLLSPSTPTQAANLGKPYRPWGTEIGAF
The experiment in a line: affinity purification with mass spectrometry; tandem affinity purification of FS-Hey1 (anti-Flag M2 gel, Flag peptide elution, then StrepTactin beads, desthiobiotin elution) from whole cell lysates and nuclear extracts of Dox-induced 293tet-FS-Hey1 cells; non-induced cells as negative control; LC-MS/MS of gel slices.
In the case of “HES1 (Hairy and enhancer of split 1 isoform 1) (from UniProt Q14469 1-280)”, the binding entry is “binds”.
For “PAM (Protein Associated with Myc, MYCBP2) (from UniProt O75592 1-4678)”, the binding result is recorded as “binds”.
Take B1: the binding result is “binds”.

For the origin of these results see paper PMC4466309.
